Drawing on PubChem BioAssay AID485318 (Broad Institute, 2010), this text covers activity change, negative = inhibition for 81 compounds.

Chains of the proteins cited; added tags and fusions are not shown. Lines headed by an entry give the natural chain unless they say otherwise; changes in a name come on top.
UniProt O15379: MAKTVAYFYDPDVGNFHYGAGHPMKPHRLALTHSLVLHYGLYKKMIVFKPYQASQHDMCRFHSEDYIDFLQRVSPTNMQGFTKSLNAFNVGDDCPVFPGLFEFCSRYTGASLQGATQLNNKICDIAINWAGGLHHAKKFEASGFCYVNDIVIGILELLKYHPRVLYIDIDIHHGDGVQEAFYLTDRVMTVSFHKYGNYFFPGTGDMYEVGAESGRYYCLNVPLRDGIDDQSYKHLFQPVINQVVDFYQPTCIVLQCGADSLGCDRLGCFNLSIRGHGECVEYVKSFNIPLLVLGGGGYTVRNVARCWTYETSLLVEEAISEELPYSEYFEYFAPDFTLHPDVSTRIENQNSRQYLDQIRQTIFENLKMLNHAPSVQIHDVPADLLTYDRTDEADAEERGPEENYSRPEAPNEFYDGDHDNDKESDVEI

Structures are written as SMILES. Hit rate of the full screen: of about 1,400 compounds, fewer than 10 were called active.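 The calls were made as follows: active = fluorescence-lowering compounds whose fitted half-maximal concentration is at or below ten times the highest valid dose tested; inconclusive = flat curve at 30 to 70% inhibition, or poor fit; inactive = the rest.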 This is one part of the list.

The assay addresses Histone deacetylase 3 (Homo sapiens) (UniProt O15379). The assay is described as follows: inhibition of human HDAC3 enzymatic activity – biochemical, fluorescence, cherry-picked samples, counter-screen for JMJD2C/GASC1 demethylase inhibitor project, dose response (AID 485318).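 Also: enzyme preincubated with compound before substrate and trypsin were added; 0% = neutral control wells and -100% = SAHA positive control wells.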 To be noted: recombinant HDAC3, fluorogenic peptide/trypsin coupled; at 12 µM (top of the series).
Take `Cc1noc(C)c1NC(=O)N(C)C[C@H]1Oc2ccc(NC(=O)CCC(F)(F)F)cc2C(=O)N([C@H](C)CO)C[C@@H]1C`: the activity change, negative = inhibition was inactive: -0.0491%.

Take `Nc1nnc(SC2CC(=O)N(c3ccccc3)C2=O)s1` (stereo unspecified): the activity change, negative = inhibition was inactive: 0.06%.

Regarding `OCC1=C[C@@H](O)[C@@H]2C=CO[C@@H](O[C@@H]3O[C@H](CO)[C@@H](O)[C@H](O)[C@H]3O)[C@H]12`, the activity change, negative = inhibition was inactive: -0.962%.

On to `COc1ccc(-n2c(C)cc(/C=N/Nc3nnc(C)n3N)c2C)cc1`, for which the activity change, negative = inhibition is inactive: -0.352%.

Take `Cc1ccc(S(=O)(=O)NCCC(=O)OCC(=O)Nc2ccccc2Cl)cc1`: the activity change, negative = inhibition was inactive: 0.205%.

Regarding `CC/C(=C/c1sc2ccc(C)cc2[n+]1CCCS(=O)(=O)[O-])SC`, the activity change, negative = inhibition was inactive: 0.516%.

As for `Cc1ccc(CONC(=O)c2cccc([N+](=O)[O-])c2)cc1`, the activity change, negative = inhibition is inactive: 0.0462%.

On to `CC(=O)Nc1ccc(NC(=O)Cn2cnc3c(cnn3C(C)(C)C)c2=O)cc1`, for which the activity change, negative = inhibition is inactive: -0.0692%.

For the compound `Cc1ccc(C(=O)CN2C(=O)C(=O)N(Cc3ccccc3)C2=O)cc1`, the activity change, negative = inhibition was inactive: 0.0826%.

`O=C(CC(=O)N/N=C/c1c(F)cccc1Cl)NCc1ccccc1`: the activity change, negative = inhibition was inactive: -0.59%.

As to `O=C(NC1CCN(S(=O)(=O)c2ccc(F)cc2)CC1)c1ccc(F)cc1`, the activity change, negative = inhibition is inactive: -0.0742%.

In the case of `CSC1=N/C(=C\C=C\c2cccs2)C(=O)S1`, the activity change, negative = inhibition was inactive: -0.264%.

With `S=C(NCc1ccco1)Nc1cccc(Cl)c1`, the activity change, negative = inhibition was inactive: -1.13%.

Take `CCOC(=O)C1(C)NC(c2cccs2)C2C(=O)N(c3ccc(OC)cc3)C(=O)C21` (stereo unspecified): the activity change, negative = inhibition is inactive: 0.328%.

For the compound `N#Cc1nc(COc2ccccc2F)oc1NCCCn1ccnc1`, the activity change, negative = inhibition was inactive: 0.288%.

With `O=C1c2ccc([N+](=O)[O-])cc2C(=O)N1Cc1cccnc1`, the activity change, negative = inhibition is inactive: -0.944%.

Regarding `O=C(/C=C/c1ccc2c(c1)OCO2)NCCS(=O)(=O)N1CCN(c2ccc(F)cc2)CC1`, the activity change, negative = inhibition was inactive: 0.0604%.

Consider `COc1ccccc1-c1nc(C#N)c(NCc2ccc(F)cc2)o1`, for which the activity change, negative = inhibition is inactive: -0.612%.

Regarding `COc1cc2c(cc1CNC[C@H]1O[C@@H](n3cnc4c(N)ncnc43)[C@H](O)[C@@H]1O)OCO2`, the activity change, negative = inhibition is inactive: 0.502%.

`C[C@@H]1CN([C@@H](C)CO)C(=O)c2cc(NC(=O)CCN3CCOCC3)ccc2O[C@@H]1CN(C)C(=O)Nc1ccccc1`: the activity change, negative = inhibition is inactive: -0.267%.

Regarding `Cc1nnc(N/N=C\c2ccc(-c3ccccc3[N+](=O)[O-])o2)n1N`, the activity change, negative = inhibition is inactive: 0.201%.

With `Cc1ccc(C)c(N(C(=O)c2csnn2)C(C(=O)NC2CCCC2)c2cccnc2)c1` (stereo unspecified), the activity change, negative = inhibition was inactive: -1.01%.

For `COc1cccc(OC)c1C(=O)NC(=S)N1CCOCC1`, the activity change, negative = inhibition is inactive: 0.0161%.

On to `N#Cc1ccc(N=c2ssnc2Cl)cc1`, for which the activity change, negative = inhibition was inactive: -0.712%.

As for `O=C(NCc1cccc(Cl)c1)c1cnn2c1NC(c1ccco1)CC2C(F)(F)F` (stereo unspecified), the activity change, negative = inhibition is inactive: -0.0149%.

`COc1cc(/C=N/Nc2ccccc2)ccc1OC(=O)c1cccs1`: the activity change, negative = inhibition is inactive: 0.964%.

On to `N#CCN1CCC(c2cc(-c3ccco3)n[nH]2)CC1`, for which the activity change, negative = inhibition was inactive: 0.338%.

As to `Cc1c(C(=O)NCc2cccs2)oc2ccccc12`, the activity change, negative = inhibition was inactive: 0.326%.

Consider `CCn1c(=O)c(-c2nc3ccccc3[nH]2)c(O)c2ccccc21`, for which the activity change, negative = inhibition was inactive: 0.252%.

As for `CS(=O)(=O)N(CC(=O)NCc1ccco1)c1ccccc1Cl`, the activity change, negative = inhibition is inactive: 0.299%.

For the compound `CCOC(=O)C1=C(C)NC2=C(C(=O)CCC2)C1c1coc2ccccc2c1=O` (stereo unspecified), the activity change, negative = inhibition was inactive: 0.15%.

Consider `COc1ccc(NC(=O)N(C)C[C@@H]2Oc3c(NC(=O)Nc4c(C)noc4C)cccc3C(=O)N([C@@H](C)CO)C[C@@H]2C)cc1`, for which the activity change, negative = inhibition was inactive: -0.0525%.

Consider `C[C@H](CO)N1C[C@H](C)[C@H](CN(C)Cc2ccc(Oc3ccccc3)cc2)Oc2ccc(NC(=O)Nc3cccc4ccccc34)cc2CC1=O`, for which the activity change, negative = inhibition was inactive: 1.26%.

For the compound `Cc1ccc(NC(=O)c2cccc3c2C(=O)N(C2CCCCC2)C3)c(C)c1`, the activity change, negative = inhibition is inactive: 0.767%.

Regarding `FC(F)(F)c1cccc(NCc2cn3cccnc3n2)c1`, the activity change, negative = inhibition is inactive: 0.0714%.

For `OC[C@H]1O[C@@H]2O[C@H]3[C@H](O)[C@@H](O)[C@@H](O[C@H]4[C@H](O)[C@@H](O)[C@@H](O[C@H]5[C@H](O)[C@@H](O)[C@@H](O[C@H]6[C@H](O)[C@@H](O)[C@@H](O[C@H]7[C@H](O)[C@@H](O)[C@@H](O[C@H]1[C@H](O)[C@H]2O)O[C@@H]7CO)O[C@@H]6CO)O[C@@H]5CO)O[C@@H]4CO)O[C@@H]3CO`, the activity change, negative = inhibition was inactive: -0.216%.

For `Cc1cccc(NC(=O)C2CCCN(S(=O)(=O)c3c(C)nn(C)c3C)C2)n1` (stereo unspecified), the activity change, negative = inhibition was inactive: 0.129%.

Turning to `Cc1noc(C)c1COc1ccc(C(=O)OC(C)C(=O)Nc2ccc(N3CCOCC3)cc2)cc1` (stereo unspecified), the activity change, negative = inhibition was inactive: 0.0949%.

Turning to `O=C(NCc1ccccc1Br)c1cccc2c1C(=O)c1ccc(N3CCC(Cc4ccccc4)CC3)cc1S2(=O)=O`, the activity change, negative = inhibition is inactive: 0.568%.

Take `CCN1c2ccccc2-c2nc3ccccc3n2C1c1ccccn1` (stereo unspecified): the activity change, negative = inhibition was inactive: 0.416%.

As to `Cn1nnnc1SCC(=O)NCC(=O)c1ccccc1`, the activity change, negative = inhibition is inactive: 0.00764%.

For `Cc1ccc(C)c(Cn2c(C(=O)OC(C)C)cc3c2ccn3C)c1`, the activity change, negative = inhibition is inactive: -0.102%.

As for `O=C(CCN1C(=O)/C(=C/c2ccc(F)cc2)SC1=S)N[C@@H](CO)Cc1ccccc1`, the activity change, negative = inhibition is inactive: -0.0269%.

With `C[C@H](CO)N1C[C@H](C)[C@@H](CN(C)S(=O)(=O)c2cccs2)Oc2c(NC(=O)CCC(F)(F)F)cccc2C1=O`, the activity change, negative = inhibition is inactive: -1.42%.

Take `O=c1c2ccccc2c(C=NCCCN2CCOCC2)c(O)n1Cc1ccccc1`: the activity change, negative = inhibition is inactive: 0.813%.

With `CC(C)NC(=O)N(C)C[C@H]1Oc2ccc(NS(=O)(=O)c3ccccc3)cc2C(=O)N([C@H](C)CO)C[C@H]1C`, the activity change, negative = inhibition is inactive: 0.293%.

Regarding `Cc1cc(NS(=O)(=O)c2ccc(Nc3nc(-c4sc(N)nc4C)cs3)cc2)no1`, the activity change, negative = inhibition is inactive: 0.426%.

`O=C(c1cccc(C(F)(F)F)c1)N1CCCC1`: the activity change, negative = inhibition was inactive: -1.01%.

On to `O=C(Nc1c(Cl)cccc1Cl)c1cc(-c2ccco2)on1`, for which the activity change, negative = inhibition is inactive: -0.602%.

With `COc1ccc(CNCC(=O)Nc2sccc2C#N)cc1`, the activity change, negative = inhibition was inactive: -0.369%.

Turning to `COc1ccc(OC)c(Nc2nc(-c3cccs3)cs2)c1`, the activity change, negative = inhibition was inactive: -0.322%.

In the case of `O=C1NC(=S)N/C1=C/c1cc2c(cc1[N+](=O)[O-])OCO2`, the activity change, negative = inhibition is inactive: -0.112%.

For the compound `Cc1ccc(CNC(=O)CCC2CCCN(Cc3ccc4cccc(F)c4n3)C2)o1` (stereo unspecified), the activity change, negative = inhibition was inactive: 0.3%.

Take `COc1ccc(C(=O)NCc2nnc(SCC(=O)N3CCc4ccccc43)o2)cc1OC`: the activity change, negative = inhibition was inactive: -0.675%.

Take `C#CCOCCOCCOCCNc1nc(N2CCN(C(=O)[C@H](CCCCN)n3cc(CN)nn3)CC2)nc(N2CCN(C(=O)[C@H](CCC(=O)O)n3cc([C@@H](N)CCSC)nn3)CC2)n1`: the activity change, negative = inhibition is inactive: -0.309%.

`COCCNC(=S)N1CCN(C)CC1`: the activity change, negative = inhibition is inactive: 0.121%.

As to `COc1ccc(C(C(C(=O)c2ccco2)N2CCOCC2)N2CCOCC2)cc1` (stereo unspecified), the activity change, negative = inhibition was inactive: -0.449%.

Regarding `c1cc2c(cc1C1CCCCC1)c1c3n2CCCNC3CCC1` (stereo unspecified), the activity change, negative = inhibition is inactive: -0.199%.

In the case of `CC1(C)CC(=O)C2=C(C1)OC(N)=C(C#N)C2C#Cc1ccccc1` (stereo unspecified), the activity change, negative = inhibition is inactive: 0.109%.

For `COc1ccc(CCNC(=O)c2cccc(NS(=O)(=O)c3ccccc3F)c2)cc1OC`, the activity change, negative = inhibition is inactive: 0.204%.

Consider `CC(C)c1ccc(NC2CCCN(C(=O)CCN3CCCCC3=O)C2)cc1` (stereo unspecified), for which the activity change, negative = inhibition is inactive: 0.859%.

With `CCOC(=O)c1c(S(=O)(=O)N2CCN(c3ccc(F)cc3)CC2)c(C)n(C)c1C`, the activity change, negative = inhibition was inactive: 0.311%.

For `CCOC(=O)c1[nH]c(CSc2nnnn2-c2ccccc2C)c(C(=O)OCC)c1C`, the activity change, negative = inhibition was inactive: 0.233%.

Consider `COc1ccc(/C=C(/C(=O)NCc2ccccc2)c2ccccc2)cc1`, for which the activity change, negative = inhibition is inactive: 0.155%.

In the case of `O=C(O)CSc1nnc(COc2cccc3cccnc23)n1-c1cccc(C(F)(F)F)c1`, the activity change, negative = inhibition was inactive: 0.166%.

Turning to `Cc1nnc(N2C(=O)C(=O)/C(=C(/O)c3ccc4c(c3)CC(C)O4)C2c2ccccc2F)s1` (stereo unspecified), the activity change, negative = inhibition was inactive: 0.641%.

Take `O=C(NCC1CCCO1)Nc1ccccc1` (stereo unspecified): the activity change, negative = inhibition is inactive: -0.325%.

With `O=C(Nc1ccc(-c2csc(Nc3ccc(Cl)cc3)n2)cc1)c1ccccc1`, the activity change, negative = inhibition is inactive: -0.106%.

Take `O=C(CC1C[C@H](C(=O)N2CCCCC2)[C@@]2(CCc3ccccc3)c3[nH]c4ccccc4c3CCN2C1=O)NCCC1=CCCCC1` (stereo partly specified): the activity change, negative = inhibition is inactive: 0.41%.

`Nc1ncnc2c1ncn2[C@@H]1O[C@H](CNCC#Cc2ccccc2)[C@@H](O)[C@H]1O`: the activity change, negative = inhibition was inactive: 0.255%.

On to `COc1ccc(NC(=O)c2cccc(N3C(=O)C4CC=C(C)CC4C3=O)c2)c(OC)c1` (stereo unspecified), for which the activity change, negative = inhibition is inactive: 1.19%.

On to `COc1cc(-c2nnco2)cc(OC)c1OC`, for which the activity change, negative = inhibition is inactive: -0.379%.

On to `COc1ccccc1OCCOCCn1cnc2ccccc2c1=O`, for which the activity change, negative = inhibition is inactive: -0.761%.

`COc1ccc(-c2cc3c(=O)n(CC(=O)NCc4cccnc4)nc(C)n3n2)cc1`: the activity change, negative = inhibition is inactive: 0.0429%.

Regarding `COc1ccc(C(=O)N2CCC(C(=O)NCc3ccccn3)CC2)cc1`, the activity change, negative = inhibition was inactive: 0.0097%.

With `CC(=O)c1c(Nc2ccccc2)sc(C(=O)c2ccccc2)c1C`, the activity change, negative = inhibition is inactive: -0.4%.

On to `O=C(Cn1c(=O)sc2ccccc21)NCc1ccco1`, for which the activity change, negative = inhibition is inactive: 0.819%.

Take `CCC(C)C(NC(=O)OC(C)(C)C)C(=O)NC(C(=O)N1CCCC1C(N)=O)C(C)CC` (stereo unspecified): the activity change, negative = inhibition was inactive: 0.796%.

Consider `COC(=O)C1CCN(C(=O)COC(=O)COc2ccc(C#N)cc2)CC1`, for which the activity change, negative = inhibition was inactive: -0.153%.

For `CCOc1cc(NC(=O)c2ccco2)c(OCC)cc1NC(=O)c1ccco1`, the activity change, negative = inhibition is inactive: 0.0887%.

Regarding `Cc1ccccc1C(=O)OCCCN=C1NS(=O)(=O)c2ccccc21`, the activity change, negative = inhibition is inactive: -0.82%.
